# Data published in paper PMC11130238, “Mechanism of complement inhibition by a mosquito protein revealed through cryo-EM” (Communications Biology, 2024).
# The chains behind the UniProt entries cited, without tags or fusion partners. Where a name states a change or a piece, a line headed by the entry shows the natural chain unless it says otherwise.
# UniProt P01024: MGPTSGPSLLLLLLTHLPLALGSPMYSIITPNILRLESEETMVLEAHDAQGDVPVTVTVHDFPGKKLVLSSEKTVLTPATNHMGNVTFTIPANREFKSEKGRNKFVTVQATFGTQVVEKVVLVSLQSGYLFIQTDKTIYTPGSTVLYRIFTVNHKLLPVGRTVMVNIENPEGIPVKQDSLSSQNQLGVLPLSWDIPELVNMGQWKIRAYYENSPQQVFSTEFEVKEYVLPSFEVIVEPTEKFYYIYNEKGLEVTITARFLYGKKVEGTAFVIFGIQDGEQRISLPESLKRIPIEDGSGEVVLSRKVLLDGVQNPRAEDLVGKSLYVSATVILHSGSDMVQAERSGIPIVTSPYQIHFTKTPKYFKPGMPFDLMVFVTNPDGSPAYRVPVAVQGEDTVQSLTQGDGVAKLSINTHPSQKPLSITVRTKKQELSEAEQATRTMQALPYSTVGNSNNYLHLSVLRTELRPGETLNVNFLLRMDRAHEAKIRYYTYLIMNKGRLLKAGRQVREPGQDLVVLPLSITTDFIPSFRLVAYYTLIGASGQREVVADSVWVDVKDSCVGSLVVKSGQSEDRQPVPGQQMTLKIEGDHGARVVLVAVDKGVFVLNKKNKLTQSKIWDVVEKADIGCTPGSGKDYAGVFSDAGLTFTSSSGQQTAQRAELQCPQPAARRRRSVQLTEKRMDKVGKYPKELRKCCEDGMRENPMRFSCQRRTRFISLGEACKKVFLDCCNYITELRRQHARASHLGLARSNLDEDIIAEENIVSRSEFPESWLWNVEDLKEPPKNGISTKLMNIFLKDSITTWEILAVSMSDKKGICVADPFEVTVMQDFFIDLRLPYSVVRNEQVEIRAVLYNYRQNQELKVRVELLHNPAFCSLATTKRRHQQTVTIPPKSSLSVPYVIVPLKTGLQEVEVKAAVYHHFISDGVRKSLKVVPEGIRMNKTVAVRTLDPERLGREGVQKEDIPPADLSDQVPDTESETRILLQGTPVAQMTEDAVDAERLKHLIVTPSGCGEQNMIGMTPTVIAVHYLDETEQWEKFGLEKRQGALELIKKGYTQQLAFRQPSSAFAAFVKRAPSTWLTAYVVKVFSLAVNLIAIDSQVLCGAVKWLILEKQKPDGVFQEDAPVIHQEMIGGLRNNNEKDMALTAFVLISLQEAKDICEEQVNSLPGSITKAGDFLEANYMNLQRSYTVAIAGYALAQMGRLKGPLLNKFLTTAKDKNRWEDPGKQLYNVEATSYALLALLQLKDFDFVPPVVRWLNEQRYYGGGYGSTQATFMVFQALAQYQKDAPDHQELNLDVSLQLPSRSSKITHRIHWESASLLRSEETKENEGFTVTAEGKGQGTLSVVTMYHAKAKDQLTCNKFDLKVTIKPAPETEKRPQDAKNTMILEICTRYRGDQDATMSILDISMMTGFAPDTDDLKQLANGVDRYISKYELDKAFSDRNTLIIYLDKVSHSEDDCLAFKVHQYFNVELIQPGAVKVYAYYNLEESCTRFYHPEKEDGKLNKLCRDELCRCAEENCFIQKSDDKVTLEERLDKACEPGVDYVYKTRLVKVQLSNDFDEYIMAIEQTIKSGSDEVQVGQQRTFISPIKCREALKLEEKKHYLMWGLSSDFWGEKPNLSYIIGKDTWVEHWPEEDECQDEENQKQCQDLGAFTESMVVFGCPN
# Results are given in words; binding and its absence hold for the method and conditions named.
# B1: albicin (natural protein)
# chain: ANNHIRTVLKLFRTIDLDDSKKSFYLTAAKYGIQTQLREPIIRIVGGYLPSTKLSEACVKNMISEVYEIEGDFYSKFSYACEDHAPYSVECLEDARDDYLTQLVELFKETKKCLRE
# notes: albicin, salivary Sg7-1 family protein of the mosquito Anopheles albimanus; crystal structure PDB 6XKE; Four-helix bundle with two disulfide bonds; Probably made without its signal peptide (surmised); also called Sg7-1 protein of An. albimanus
# Target: C3bBb, the alternative pathway C3 convertase (human) (UniProt P01024)
# Test: SEC; C3b, FB and albicin incubated with FD for 14 h; Superdex 200 in buffer A; SDS-PAGE of fractions; both purified
binder,measurement,value
B1,binding,no binding (condition: after 14 h of incubation)
